From article doi:10.1101/513135
These are yes or no findings as the source states them, for the method shown. Binding seen in cells or lysates may run through a third protein. Here binding means that the protein was enriched with, or labelled near, the bait; the list need not be complete. Sequences can lack the tags named with a protein.

Target: T1, Mdh1-GFP (S. cerevisiae) (UniProt P17505)
T1 sequence: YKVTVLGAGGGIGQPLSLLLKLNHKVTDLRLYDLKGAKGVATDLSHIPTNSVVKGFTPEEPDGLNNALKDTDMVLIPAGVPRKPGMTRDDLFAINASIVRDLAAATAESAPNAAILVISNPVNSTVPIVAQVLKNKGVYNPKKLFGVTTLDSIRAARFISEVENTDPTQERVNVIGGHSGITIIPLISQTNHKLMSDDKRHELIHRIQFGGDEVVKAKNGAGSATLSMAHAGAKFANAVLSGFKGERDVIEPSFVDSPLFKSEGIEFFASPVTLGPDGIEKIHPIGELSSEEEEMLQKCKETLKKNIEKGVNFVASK
Assay: affinity purification with mass spectrometry

binding: binds
B1: Idh1 (protein, UniProt P28834 12-360)
chain: ATAAQAERTLPKKYGGRFTVTLIPGDGVGKEITDSVRTIFEAENIPIDWETINIKQTDHKEGVYEAVESLKRNKIGLKGLWHTPADQTGHGSLNVALRKQLDIYANVALFKSLKGVKTRIPDIDLIVIRENTEGEFSGLEHESVPGVVESLKVMTRPKTERIARFAFDFAKKYNRKSVTAVHKANIMKLGDGLFRNIITEIGQKEYPDIDVSSIIVDNASMQAVAKPHQFDVLVTPSMYGTILGNIGAALIGGPGLVAGANFGRDYAVFEPGSRHVGLDIKGQNVANPTAMILSSTLMLNHLGLNEYATRISKAVHETIAEGKHTTRDIGGSSSTTDFTNEIINKLSTM
